Our source for the binding values is article PMC6636010.

Protein sequences, listed by entry. Tags and fused reporters are not part of them.
UniProt P17096: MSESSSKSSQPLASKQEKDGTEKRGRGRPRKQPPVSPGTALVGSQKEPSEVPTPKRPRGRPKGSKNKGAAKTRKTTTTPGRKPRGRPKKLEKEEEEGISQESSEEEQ

Results are given in words; binding and its absence hold for the method and conditions named. Binding seen in cells or lysates may run through a third protein. Some entries that bind do so weakly or less than the wild type.

The target in this assay is High Mobility Group A1 (HMGA1) (human (endogenous in MDA-MB-231)) (UniProt P17096). Kind of assay: co-IP; endogenous proteins; 250 μg MDA-MB-231 lysate with 1 μg α-HMGA1 (α-GFP as negative control) in IP buffer (25 mM Tris/HCl pH 7.4, 0.5% NP40, 125 mM NaCl) O/N at 4 °C, A/G proteins agarose beads 2 h at 4 °C; western blot with α-HMGA1 and α-FOXM1. For orientation: Immunoblotting shows a protein as a band on a membrane.

B1: Forkhead box M1 (FOXM1) (protein, UniProt Q08050 1-763)
chain: MKTSPRRPLILKRRRLPLPVQNAPSETSEEEPKRSPAQQESNQAEASKEVAESNSCKFPAGIKIINHPTMPNTQVVAIPNNANIHSIITALTAKGKESGSSGPNKFILISCGGAPTQPPGLRPQTQTSYDAKRTEVTLETLGPKPAARDVNLPRPPGALCEQKRETCADGEAAGCTINNSLSNIQWLRKMSSDGLGSRSIKQEMEEKENCHLEQRQVKVEEPSRPSASWQNSVSERPPYSYMAMIQFAINSTERKRMTLKDIYTWIEDHFPYFKHIAKPGWKNSIRHNLSLHDMFVRETSANGKVSFWTIHPSANRYLTLDQVFKPLDPGSPQLPEHLESQQKRPNPELRRNMTIKTELPLGARRKMKPLLPRVSSYLVPIQFPVNQSLVLQPSVKVPLPLAASLMSSELARHSKRVRIAPKVLLAEEGIAPLSSAGPGKEEKLLFGEGFSPLLPVQTIKEEEIQPGEEMPHLARPIKVESPPLEEWPSPAPSFKEESSHSWEDSSQSPTPRPKKSYSGLRSPTRCVSEMLVIQHRERRERSRSRRKQHLLPPCVDEPELLFSEGPSTSRWAAELPFPADSSDPASQLSYSQEVGGPFKTPIKETLPISSTPSKSVLPRTPESWRLTPPAKVGGLDFSPVQTSQGASDPLPDPLGLMDLSTTPLQSAPPLESPQRLLSSEPLDLISVPFGNSSPSDIDVPKPGSPEPQVSGLAANRSLTEGLVLDTMNDSLSKILLDISFPGLDEDPLGPDNINWSQFIPELQ
For B1, the binding result is recorded as “binds”.
